Assay: general procedure: Fmoc solid-phase peptide synthesis; 2-chlorotrityl resin; Rink resin; BOP/HOBt
Conditions: conjugation step

## Asn(Trt)-Gln(Trt)-Glu(tBu)-Gln(Trt)-Val-Ser(tBu)-Pro-Tyr(tBu)-Thr(tBu)-Leu-Leu-Lys(Boc)-Gly-Pn216
  conjugation yield: 82%

From patent US7049289B1 (Amersham PLC, priority 1998, dated 2006)
